Assay results published in article doi:10.1101/298208 (bioRxiv, 2018).
These are yes or no findings as the source states them, for the method shown. In cells and extracts the contact can be indirect. Some results given as binding are weak or reduced against the parent protein; the word gives no strength.

The chains behind the UniProt entries cited, without tags or fusion partners. Residues count along the entry.
UniProt Q8R4W6, residues 23-414: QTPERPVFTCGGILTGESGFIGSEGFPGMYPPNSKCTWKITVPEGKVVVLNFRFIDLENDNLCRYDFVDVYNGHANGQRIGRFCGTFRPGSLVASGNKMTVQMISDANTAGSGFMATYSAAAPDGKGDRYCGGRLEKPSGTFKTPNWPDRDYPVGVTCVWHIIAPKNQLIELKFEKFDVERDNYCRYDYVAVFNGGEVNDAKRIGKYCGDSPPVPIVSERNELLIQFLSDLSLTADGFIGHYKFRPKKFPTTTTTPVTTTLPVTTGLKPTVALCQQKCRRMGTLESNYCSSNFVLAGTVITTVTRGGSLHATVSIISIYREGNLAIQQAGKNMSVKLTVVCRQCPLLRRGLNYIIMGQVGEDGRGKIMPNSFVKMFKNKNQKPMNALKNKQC

Target: T1, scavenger receptor class BI (SR-BI) (mouse (endogenous in 3T3-L1)) (UniProt Q61009)
T1 sequence: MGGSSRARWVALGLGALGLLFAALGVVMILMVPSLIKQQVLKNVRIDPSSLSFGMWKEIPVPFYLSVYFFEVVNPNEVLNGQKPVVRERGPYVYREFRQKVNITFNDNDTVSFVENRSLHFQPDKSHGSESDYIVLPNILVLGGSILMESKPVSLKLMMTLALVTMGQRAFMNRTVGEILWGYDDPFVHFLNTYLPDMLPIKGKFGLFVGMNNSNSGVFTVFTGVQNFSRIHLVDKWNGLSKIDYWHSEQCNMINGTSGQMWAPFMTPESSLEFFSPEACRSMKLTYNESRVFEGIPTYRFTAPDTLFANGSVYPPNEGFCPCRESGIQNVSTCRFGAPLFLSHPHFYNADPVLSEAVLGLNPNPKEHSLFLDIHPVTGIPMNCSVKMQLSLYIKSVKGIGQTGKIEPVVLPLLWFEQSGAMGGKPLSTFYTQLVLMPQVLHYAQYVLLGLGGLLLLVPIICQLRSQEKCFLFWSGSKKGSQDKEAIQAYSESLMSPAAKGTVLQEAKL
Assay: co-IP

“procollagen endopeptidase enhancer 2 (PCPE2) (from UniProt Q8R4W6 23-414)” was tested, and the binding was “binds”.
